Drawing on publication PMC4232260, this text covers binding for one molecule.

No constants are given. Whether binding was seen depends on the method and setting.

For this experiment, the target named is AKAP-Lbc DH-PH domain (UniProt Q12802). Kind of experiment: SEC; DH-PH domain alone on a size-exclusion column; both purified. A general note: Size exclusion chromatography separates by hydrodynamic size, large species first.

B1: AKAP-Lbc DH-PH domain (domain or fragment, UniProt Q12802-2 1973-2342)
chain: KQLEAESWSRIIDSKFLKQQKKDVVKRQEVIYELMQTEFHHVRTLKIMSGVYSQGMMADLLFEQQMVEKLFPCLDELISIHSQFFQRILERKKESLVDKSEKNFLIKRIGDVLVNQFSGENAERLKKTYGKFCGQHNQSVNYFKDLYAKDKRFQAFVKKKMSSSVVRRLGIPECILLVTQRITKYPVLFQRILQCTKDNEVEQEDLAQSLSLVKDVIGAVDSKVASYEKKVRLNEIYTKTDSKSIMRMKSGQMFAKEDLKRKKLVRDGSVFLKNAAGRLKEVQAVLLTDILVFLQEKDQKYIFASLDQKSTVISLKKLIVREVAHEEKGLFLISMGMTDPEMVEVHASSKEERNSWIQIIQDTINTLNRD
With B1, the binding result was “no binding”.
